This series is described as follows: solid-phase peptide synthesis. The note with it: whole synthesis, scale 0.5 mmol.

The star is where a group is joined. Fmoc = O=C(OCC1c2ccccc2-c2ccccc21)*

For Fmoc-GNWHGTAP-OH, the crude mass was 464.0 mg and the isolated mass is on record as 131.9 mg.
